Laboratory results from publication doi:10.64898/2025.12.12.693873.
These are yes or no findings as the source states them, for the method shown. In cells and extracts the contact can be indirect. For some of these results: A result given as binding can be weak or reduced; the word gives no strength. For some of these results: Where a sequence is shown, tags or fusion partners need not be part of it.

Protein sequences, listed by entry. Tags and fused reporters are not part of them. Lines headed by an entry give the natural chain unless they say otherwise; changes in a name come on top.
UniProt Q7KT57: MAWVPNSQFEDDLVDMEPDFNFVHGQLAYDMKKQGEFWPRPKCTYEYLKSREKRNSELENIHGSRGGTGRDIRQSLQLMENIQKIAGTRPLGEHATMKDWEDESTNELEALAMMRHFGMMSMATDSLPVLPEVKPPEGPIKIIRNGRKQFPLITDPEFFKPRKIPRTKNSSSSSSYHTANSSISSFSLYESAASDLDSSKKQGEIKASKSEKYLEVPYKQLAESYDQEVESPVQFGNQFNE

T1: Myc-tagged Spn-E^WT (Drosophila melanogaster) (UniProt Q9VF26)
T1 sequence: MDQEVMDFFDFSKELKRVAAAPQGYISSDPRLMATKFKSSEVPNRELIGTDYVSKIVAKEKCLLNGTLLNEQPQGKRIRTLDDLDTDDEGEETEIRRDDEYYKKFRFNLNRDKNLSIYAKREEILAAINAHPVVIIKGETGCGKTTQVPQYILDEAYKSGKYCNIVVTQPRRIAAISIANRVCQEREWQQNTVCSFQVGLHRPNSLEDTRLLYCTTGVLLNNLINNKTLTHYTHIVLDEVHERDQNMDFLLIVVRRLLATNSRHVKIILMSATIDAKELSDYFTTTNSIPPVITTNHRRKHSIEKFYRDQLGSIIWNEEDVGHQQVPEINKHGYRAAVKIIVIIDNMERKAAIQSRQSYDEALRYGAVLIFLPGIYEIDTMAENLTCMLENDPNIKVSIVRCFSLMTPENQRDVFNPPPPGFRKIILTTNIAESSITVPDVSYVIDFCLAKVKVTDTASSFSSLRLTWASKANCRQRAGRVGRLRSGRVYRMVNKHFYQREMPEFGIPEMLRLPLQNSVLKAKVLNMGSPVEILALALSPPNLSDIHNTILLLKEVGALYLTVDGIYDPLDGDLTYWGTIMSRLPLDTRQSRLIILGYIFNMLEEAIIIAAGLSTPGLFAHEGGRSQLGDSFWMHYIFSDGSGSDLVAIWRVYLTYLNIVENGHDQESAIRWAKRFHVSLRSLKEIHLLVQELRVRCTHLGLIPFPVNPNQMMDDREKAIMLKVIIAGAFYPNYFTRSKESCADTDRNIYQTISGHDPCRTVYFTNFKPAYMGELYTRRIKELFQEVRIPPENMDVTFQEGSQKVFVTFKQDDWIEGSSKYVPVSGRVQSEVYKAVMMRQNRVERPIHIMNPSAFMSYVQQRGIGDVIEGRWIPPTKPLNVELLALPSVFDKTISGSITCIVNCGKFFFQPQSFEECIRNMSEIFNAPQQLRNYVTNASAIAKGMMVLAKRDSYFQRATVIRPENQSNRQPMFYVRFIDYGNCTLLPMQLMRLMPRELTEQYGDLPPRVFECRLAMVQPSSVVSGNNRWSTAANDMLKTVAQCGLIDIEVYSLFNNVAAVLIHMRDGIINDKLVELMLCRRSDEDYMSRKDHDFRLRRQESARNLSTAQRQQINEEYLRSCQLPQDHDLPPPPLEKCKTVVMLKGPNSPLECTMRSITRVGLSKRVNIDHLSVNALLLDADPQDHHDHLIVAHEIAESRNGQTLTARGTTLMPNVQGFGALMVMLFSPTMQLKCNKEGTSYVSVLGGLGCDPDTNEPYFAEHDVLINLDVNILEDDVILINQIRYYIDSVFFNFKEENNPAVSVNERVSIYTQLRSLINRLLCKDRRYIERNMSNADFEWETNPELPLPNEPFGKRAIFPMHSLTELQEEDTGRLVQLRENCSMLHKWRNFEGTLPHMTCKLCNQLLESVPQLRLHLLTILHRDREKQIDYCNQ

T2: Myc-tagged Spn-E^4A (Drosophila melanogaster) (UniProt Q9VF26)
T2 sequence: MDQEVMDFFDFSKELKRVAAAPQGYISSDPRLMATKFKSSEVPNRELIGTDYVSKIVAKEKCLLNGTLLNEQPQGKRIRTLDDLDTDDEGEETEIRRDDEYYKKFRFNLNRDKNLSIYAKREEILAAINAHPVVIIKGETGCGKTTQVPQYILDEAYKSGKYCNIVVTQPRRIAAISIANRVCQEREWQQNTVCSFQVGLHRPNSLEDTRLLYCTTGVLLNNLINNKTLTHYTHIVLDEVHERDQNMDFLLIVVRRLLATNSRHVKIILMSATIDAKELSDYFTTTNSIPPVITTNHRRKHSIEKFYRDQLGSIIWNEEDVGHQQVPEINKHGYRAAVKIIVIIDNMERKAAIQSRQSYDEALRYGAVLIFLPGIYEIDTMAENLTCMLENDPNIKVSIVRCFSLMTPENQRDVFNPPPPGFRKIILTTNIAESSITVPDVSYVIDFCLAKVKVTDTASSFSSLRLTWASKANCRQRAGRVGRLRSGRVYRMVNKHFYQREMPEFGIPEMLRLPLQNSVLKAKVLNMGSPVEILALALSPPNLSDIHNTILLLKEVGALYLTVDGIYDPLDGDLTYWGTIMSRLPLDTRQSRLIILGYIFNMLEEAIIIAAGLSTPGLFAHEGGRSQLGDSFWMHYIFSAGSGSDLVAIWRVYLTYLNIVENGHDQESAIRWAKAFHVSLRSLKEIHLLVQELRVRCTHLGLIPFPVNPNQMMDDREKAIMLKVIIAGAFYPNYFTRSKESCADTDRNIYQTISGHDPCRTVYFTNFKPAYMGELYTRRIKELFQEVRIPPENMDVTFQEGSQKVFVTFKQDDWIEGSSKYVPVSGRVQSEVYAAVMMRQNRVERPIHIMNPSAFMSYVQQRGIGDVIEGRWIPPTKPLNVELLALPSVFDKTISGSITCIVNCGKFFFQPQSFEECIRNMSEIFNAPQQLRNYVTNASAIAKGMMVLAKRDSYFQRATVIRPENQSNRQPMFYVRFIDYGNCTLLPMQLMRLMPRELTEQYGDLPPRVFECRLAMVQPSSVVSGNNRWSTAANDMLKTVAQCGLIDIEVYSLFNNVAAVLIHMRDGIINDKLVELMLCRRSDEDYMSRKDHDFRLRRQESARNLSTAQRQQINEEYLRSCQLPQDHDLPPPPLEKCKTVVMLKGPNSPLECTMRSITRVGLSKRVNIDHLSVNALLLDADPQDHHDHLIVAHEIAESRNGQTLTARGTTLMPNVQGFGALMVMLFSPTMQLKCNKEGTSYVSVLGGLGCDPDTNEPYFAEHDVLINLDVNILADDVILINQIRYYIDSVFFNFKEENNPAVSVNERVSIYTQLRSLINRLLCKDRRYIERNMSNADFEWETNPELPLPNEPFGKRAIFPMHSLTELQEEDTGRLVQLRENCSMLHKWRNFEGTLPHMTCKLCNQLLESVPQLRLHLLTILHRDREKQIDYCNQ


What was measured:
Experiment in all cases: co-IP
[1] = biological target: T1, Myc-tagged Spn-E^WT (Drosophila melanogaster)
[2] = biological target: T2, Myc-tagged Spn-E^4A (Drosophila melanogaster)
[3] = biological target: Squash (Squ), endogenous (Drosophila melanogaster (endogenous in ovaries)) (UniProt Q7KT57)
[4] = biological target: GFP-3xFlag-Squ^4A (pNative-Squ^4A) (Drosophila melanogaster)
[5] = biological target: GFP-3xFlag-Squ^WT (pNative-Squ^WT) (Drosophila melanogaster)

binding [1]	binding [2]	binding [3]	binding [4]	binding [5]	Molecule
binds	no binding				Flag-Squ (Drosophila melanogaster)
		binds weakly	binds	binds	Ago3, endogenous (protein, UniProt Q7PLK0 1-867) MSGRGNLLSLFNKNAGNMGKSISSKDHEIDSGLDFNNSESSGERLLSSHNIETDLITTLQHVNISVGRGRARLIDTLKTDDHTSNQFITSESKENITKKTKGPESEAIASENGLFFPDLIYGSKGSSVNIYCNYLKLTTDESKGVFNYEVRFFPPIDSVHLRIKYLNDHKDKLGGTKTFDGNTLYLPILLPNKMTVFISKAEDVELQIRILYKKKEEMRNCTQLYNILFDRVMKVLNYVKFDRKQFDPSRPKIIPLAKLEVWPGYVTAVDEYKGGLMLCCDVSHRILCQKTVLEMLVDLYQQNVEHYQESARKMLVGNIVLTRYNNRTYKINDICFDQNPTCQFEIKTGCTSYVEYYKQYHNINIKDVNQPLIYSIKKSRGIPAERENLQFCLIPELCYLTGLRDEVRSDNKLMREIATFTRVSPNQRQMALNKFYENVSNTPAAQEILNSWGLSLTNNSNKISGRQMDIEQIYFSKISVSAGRSAEFSKHAVTNEMLKVVHLSKWIIIHLRNYRQAATSLLDNMKQACESLGMNISNPTMISLDHDRIDAYIQALRRNITMNTQMVVCICHNRRDDRYAAIKKICCSEIPIPSQVINAKTLQNDLKIRSVVQKIVLQMNCKLGGSLWTVKIPFKNVMICGIDSYHDPSNRGNSVAAFVASINSSYSQWYSKAVVQTKREEIVNGLSASFEIALKMYRKRNGKLPTNIIIYRDGIGDGQLYTCLNYEIPQFEMVCGNRIKISYIVVQKRINTRIFSGSGIHLENPLPGTVVDQHITKSNMYDFFLVSQLVRQGTVTPTHYVVLRDDCNYGPDIIQKLSYKLCFLYYNWAGTVRIPACCMYAHKLAYLIGQSIQRDVAEALSEKLFYL
		binds		binds	Spindle-E (Spn-E), endogenous (protein, UniProt Q9VF26 1-1434) MDQEVMDFFDFSKELKRVAAAPQGYISSDPRLMATKFKSSEVPNRELIGTDYVSKIVAKEKCLLNGTLLNEQPQGKRIRTLDDLDTDDEGEETEIRRDDEYYKKFRFNLNRDKNLSIYAKREEILAAINAHPVVIIKGETGCGKTTQVPQYILDEAYKSGKYCNIVVTQPRRIAAISIANRVCQEREWQQNTVCSFQVGLHRPNSLEDTRLLYCTTGVLLNNLINNKTLTHYTHIVLDEVHERDQNMDFLLIVVRRLLATNSRHVKIILMSATIDAKELSDYFTTTNSIPPVITTNHRRKHSIEKFYRDQLGSIIWNEEDVGHQQVPEINKHGYRAAVKIIVIIDNMERKAAIQSRQSYDEALRYGAVLIFLPGIYEIDTMAENLTCMLENDPNIKVSIVRCFSLMTPENQRDVFNPPPPGFRKIILTTNIAESSITVPDVSYVIDFCLAKVKVTDTASSFSSLRLTWASKANCRQRAGRVGRLRSGRVYRMVNKHFYQREMPEFGIPEMLRLPLQNSVLKAKVLNMGSPVEILALALSPPNLSDIHNTILLLKEVGALYLTVDGIYDPLDGDLTYWGTIMSRLPLDTRQSRLIILGYIFNMLEEAIIIAAGLSTPGLFAHEGGRSQLGDSFWMHYIFSDGSGSDLVAIWRVYLTYLNIVENGHDQESAIRWAKRFHVSLRSLKEIHLLVQELRVRCTHLGLIPFPVNPNQMMDDREKAIMLKVIIAGAFYPNYFTRSKESCADTDRNIYQTISGHDPCRTVYFTNFKPAYMGELYTRRIKELFQEVRIPPENMDVTFQEGSQKVFVTFKQDDWIEGSSKYVPVSGRVQSEVYKAVMMRQNRVERPIHIMNPSAFMSYVQQRGIGDVIEGRWIPPTKPLNVELLALPSVFDKTISGSITCIVNCGKFFFQPQSFEECIRNMSEIFNAPQQLRNYVTNASAIAKGMMVLAKRDSYFQRATVIRPENQSNRQPMFYVRFIDYGNCTLLPMQLMRLMPRELTEQYGDLPPRVFECRLAMVQPSSVVSGNNRWSTAANDMLKTVAQCGLIDIEVYSLFNNVAAVLIHMRDGIINDKLVELMLCRRSDEDYMSRKDHDFRLRRQESARNLSTAQRQQINEEYLRSCQLPQDHDLPPPPLEKCKTVVMLKGPNSPLECTMRSITRVGLSKRVNIDHLSVNALLLDADPQDHHDHLIVAHEIAESRNGQTLTARGTTLMPNVQGFGALMVMLFSPTMQLKCNKEGTSYVSVLGGLGCDPDTNEPYFAEHDVLINLDVNILEDDVILINQIRYYIDSVFFNFKEENNPAVSVNERVSIYTQLRSLINRLLCKDRRYIERNMSNADFEWETNPELPLPNEPFGKRAIFPMHSLTELQEEDTGRLVQLRENCSMLHKWRNFEGTLPHMTCKLCNQLLESVPQLRLHLLTILHRDREKQIDYCNQ
